# Data reported in PMC5996148.
# The list shows a part of the results. For some assays here: The exact form of the protein is not confirmed.
# How the values were obtained:
# Assay in all cases: protein microarray (ProtoArray v5.0), streptavidin-Alexa Fluor 647
# Conditions in all cases: 3'-biotin; 20 mM Tris (pH 7.5), 5 mM MgCl2, 100 mM KCl, 0.1% Tween-20, A/T-rich and random oligonucleotide blockers; temperature not stated; high values mean tight binding
# SERPINA6 (human) = test system: SERPINA6 (human)
# SERPINA7 (human) = test system: SERPINA7 (human)
# SERPINB1 (human) = test system: SERPINB1 (human)
# SERPINF1 = target: T1, SERPINF1 (UniProt P36955)
# T1 sequence: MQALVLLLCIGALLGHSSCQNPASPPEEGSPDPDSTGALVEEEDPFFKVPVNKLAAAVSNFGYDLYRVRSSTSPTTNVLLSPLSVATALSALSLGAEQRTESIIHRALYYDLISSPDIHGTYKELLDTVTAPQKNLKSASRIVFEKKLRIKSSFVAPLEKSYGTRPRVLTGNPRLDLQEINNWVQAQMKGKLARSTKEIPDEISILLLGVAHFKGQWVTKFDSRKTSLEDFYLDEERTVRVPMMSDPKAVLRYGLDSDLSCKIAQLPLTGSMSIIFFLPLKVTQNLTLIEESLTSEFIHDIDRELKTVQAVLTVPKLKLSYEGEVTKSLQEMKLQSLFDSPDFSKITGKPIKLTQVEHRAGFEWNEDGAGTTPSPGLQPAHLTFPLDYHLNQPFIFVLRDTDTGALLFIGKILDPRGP
# SF3A3 (human) = test system: SF3A3 (human)
# SFT2D1 (human) = test system: SFT2D1 (human)
# SFXN1 (human) = test system: SFXN1 (human)
# SFXN3 (human) = test system: SFXN3 (human)
# SGTA (human) = test system: SGTA (human)
# SIP1 (human) = test system: SIP1 (human)
# SIRT3 (human) = test system: SIRT3 (human)
# SIVA1 (human) = test system: SIVA1 (human)
# SKIL (human) = test system: SKIL (human)
# SKP1A (human) = test system: SKP1A (human)
# SLC1A6 = target: T2, SLC1A6 (UniProt P48664)
# T2 sequence: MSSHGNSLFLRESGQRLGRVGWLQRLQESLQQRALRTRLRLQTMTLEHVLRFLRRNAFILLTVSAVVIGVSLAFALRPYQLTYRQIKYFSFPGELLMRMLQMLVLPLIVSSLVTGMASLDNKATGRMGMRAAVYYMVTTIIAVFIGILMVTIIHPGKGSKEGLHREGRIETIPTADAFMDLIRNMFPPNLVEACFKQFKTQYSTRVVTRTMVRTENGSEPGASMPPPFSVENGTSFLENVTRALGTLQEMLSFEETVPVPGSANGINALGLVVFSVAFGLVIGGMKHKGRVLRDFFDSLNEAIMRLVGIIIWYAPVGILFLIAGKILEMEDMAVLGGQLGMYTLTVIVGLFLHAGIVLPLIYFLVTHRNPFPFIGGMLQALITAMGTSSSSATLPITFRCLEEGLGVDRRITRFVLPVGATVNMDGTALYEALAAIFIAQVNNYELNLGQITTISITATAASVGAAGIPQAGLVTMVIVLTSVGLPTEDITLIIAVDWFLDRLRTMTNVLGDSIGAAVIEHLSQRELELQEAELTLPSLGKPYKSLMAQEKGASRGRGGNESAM
# SLC25A46 (human) = test system: SLC25A46 (human)
# SLC26A2 (human) = test system: SLC26A2 (human)
# SLC2A5 (human) = test system: SLC2A5 (human)
# SLC39A1 (human) = test system: SLC39A1 (human)
# SLC7A1 (human) = test system: SLC7A1 (human)
sequence,measurement,setting,value
GGGGACAGGGGTATGGGGAGGGG [G4-3 biotinylated (CtG)],binding signal,SERPINA6 (human),-0.326 z-score
same,binding signal,SERPINA7 (human),-0.324 z-score
same,binding signal,SERPINB1 (human),-0.335 z-score
same,binding signal,SERPINF1,5.21 z-score
same,binding signal,SF3A3 (human),-0.333 z-score
same,binding signal,SFT2D1 (human),-0.321 z-score
same,binding signal,SFXN1 (human),-0.314 z-score
same,binding signal,SFXN3 (human),-0.329 z-score
same,binding signal,SGTA (human),-0.321 z-score
same,binding signal,SIP1 (human),-0.339 z-score
same,binding signal,SIRT3 (human),-0.299 z-score
same,binding signal,SIVA1 (human),-0.329 z-score
same,binding signal,SKIL (human),-0.314 z-score
same,binding signal,SKP1A (human),-0.341 z-score
same,binding signal,SLC1A6,-0.314 z-score
same,binding signal,SLC25A46 (human),-0.304 z-score
same,binding signal,SLC26A2 (human),-0.326 z-score
same,binding signal,SLC2A5 (human),-0.326 z-score
same,binding signal,SLC39A1 (human),-0.317 z-score
same,binding signal,SLC7A1 (human),-0.336 z-score

# Part of the list above in another layout.
sequence | measurement | setting | value
GGGGACAGGGGTATGGGGAGGGG [G4-3 biotinylated (CtG)] | binding signal | SIP1 (human) | -0.339 z-score
same | binding signal | SLC26A2 (human) | -0.326 z-score
